# Data: the supplement of paper PMC8728848
# This is one part of the list.
# B1: PX14343E-bfa-545-24-545 (Bacteroides fragilis) (protein)
# chain: LDRYPQEELSDGSFWKTPDDANKVVSDLYGYLSTWDQDNDINSDNATMGIKWAAGNVSKGIYDPADQGWSGDYANVRQCNLILSKIDEIPDYPEADKTKALGQVYFFRAYIYFNLIRSFGDVPYIDKPLDLKDMEGITRMPRAEVYEKIMADFDKAIAALPTEWGASDYGRVTKGAAMAMKARAALYYGNWDTAATEAKNVMDLGLYELYDKDNTGKYAELFWEKADGCDEFILVTQFNYPDKTHYLMGWECFPTKGWGGMNPTQSLVDAFEDSEGAPISKSKIYDPTDPFKNRDPRLEVDILHDGEEMYGVTIKVAPLASSGSTGINQHNDATETGYYGQKWLDPSLDPLSDGWNMGKDWVHIRYAEVLLTYAEAKNELQGLDPEAFDAVNQVRRRVGMPELQNTDPSKPTYCATQDDLRQRIRNEWRVEFCLEGGKRMWDIRRWGIAKDVLNAPFEGLKYKIVDNPNDPDKKVDGGKMCILYQGDPIILSGSRYSDNNYLFPVPQSEIDLNPALTQNPGY
# How the values were obtained:
# Test in all cases: glycan array binding signal (z-score within array); higher = stronger binding
# Settings in all cases: glycan notation: IUPAC condensed, linker removed
# Fuc(a1-2)Gal = target: Fuc(a1-2)Gal
# Outline: (§1)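 The binding signal is a Z-score computed within each array. Data were drawn from 3228 arrays in the Consortium for Functional Glycomics database, restricted to those with a known protein sequence. Scores were averaged over arrays of the same protein sequence at different concentrations or buffers, and over linkers, and negative values can be taken as non-binding.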
# Fuc(a1-2)Gal(b1-3)GalNAc = target: Fuc(a1-2)Gal(b1-3)GalNAc
# Outline: as §1
# [1] = target: Fuc(a1-2)Gal(b1-3)GalNAc(a1-3)[Fuc(a1-2)]Gal(b1-4)Glc
# Outline: as §1
# [2] = target: Fuc(a1-2)Gal(b1-3)GalNAc(a1-3)[Fuc(a1-2)]Gal(b1-4)GlcNAc
# Outline: as §1
# [3] = target: Fuc(a1-2)Gal(b1-3)GalNAc(b1-3)Gal
# Outline: as §1
# [4] = target: Fuc(a1-2)Gal(b1-3)GalNAc(b1-3)Gal(a1-4)Gal(b1-4)Glc
# Outline: as §1
# [5] = target: Fuc(a1-2)Gal(b1-3)GalNAc(b1-4)[Neu5Ac(a2-3)]Gal(b1-4)Glc
# Outline: as §1
# Fuc(a1-2)Gal(b1-3)GlcNAc = target: Fuc(a1-2)Gal(b1-3)GlcNAc
# Outline: as §1
# [6] = target: Fuc(a1-2)Gal(b1-3)GlcNAc(b1-2)Man(a1-3)[Fuc(a1-2)Gal(b1-3)GlcNAc(b1-2)Man(a1-6)]Man(b1-4)GlcNAc(b1-4)GlcNAc
# Outline: as §1
# [7] = target: Fuc(a1-2)Gal(b1-3)GlcNAc(b1-2)Man(a1-3)[Fuc(a1-2)Gal(b1-3)GlcNAc(b1-2)Man(a1-6)]Man(b1-4)GlcNAc(b1-4)[Fuc(a1-6)]GlcNAc
# Outline: as §1
# [8] = target: Fuc(a1-2)Gal(b1-3)GlcNAc(b1-3)Gal(b1-4)Glc
# Outline: as §1
# [9] = target: Fuc(a1-2)Gal(b1-3)GlcNAc(b1-3)GalNAc
# Outline: as §1
# [10] = target: Fuc(a1-2)Gal(b1-3)GlcNAc(b1-3)[Fuc(a1-2)Gal(b1-3)GlcNAc(b1-6)]GalNAc
# Outline: as §1
# [11] = target: Fuc(a1-2)Gal(b1-3)GlcNAc(b1-3)[Gal(b1-4)GlcNAc(b1-6)]Gal(b1-4)Glc
# Outline: as §1
# [12] = target: Fuc(a1-2)Gal(b1-3)GlcNAc(b1-3)[Neu5Ac(a2-6)Gal(b1-4)GlcNAc(b1-6)]Gal(b1-4)Glc
# Outline: as §1
# [13] = target: Fuc(a1-2)Gal(b1-3)GlcNAc6S
# Outline: as §1
# [14] = target: Fuc(a1-2)Gal(b1-3)[Fuc(a1-4)]GlcNAc
# Outline: as §1
# [15] = target: Fuc(a1-2)Gal(b1-3)[Fuc(a1-4)]GlcNAc(b1-2)Man(a1-3)[Fuc(a1-2)Gal(b1-3)[Fuc(a1-4)]GlcNAc(b1-2)Man(a1-3)]Man(b1-4)GlcNAc(b1-4)GlcNAc
# Outline: as §1
# [16] = target: Fuc(a1-2)Gal(b1-3)[Fuc(a1-4)]GlcNAc(b1-2)Man(a1-3)[Fuc(a1-2)Gal(b1-3)[Fuc(a1-4)]GlcNAc(b1-2)Man(a1-6)]Man(b1-4)GlcNAc(b1-4)[Fuc(a1-6)]GlcNAc(b1-4)[Fuc(a1-6)]GlcNAc
# Outline: as §1
# [17] = target: Fuc(a1-2)Gal(b1-3)[Fuc(a1-4)]GlcNAc(b1-3)[Fuc(a1-3)[Gal(b1-4)]GlcNAc(b1-6)]Gal(b1-4)Glc
# Outline: as §1
# [18] = target: Fuc(a1-2)Gal(b1-3)[Fuc(a1-4)]GlcNAc(b1-3)[Gal(b1-4)GlcNAc(b1-6)]Gal(b1-4)Glc
# Outline: as §1
# Fuc(a1-2)Gal(b1-4)Glc = target: Fuc(a1-2)Gal(b1-4)Glc
# Outline: as §1
# Fuc(a1-2)Gal(b1-4)Glc6S = target: Fuc(a1-2)Gal(b1-4)Glc6S
# Outline: as §1
# Fuc(a1-2)Gal(b1-4)GlcNAc = target: Fuc(a1-2)Gal(b1-4)GlcNAc
# Outline: as §1
# [19] = target: Fuc(a1-2)Gal(b1-4)GlcNAc(b1-2)Man
# Outline: as §1
# [20] = target: Fuc(a1-2)Gal(b1-4)GlcNAc(b1-2)Man(a1-3)[Fuc(a1-2)Gal(b1-4)GlcNAc(b1-2)Man(a1-6)]Man(b1-4)GlcNAc(b1-4)GlcNAc
# Outline: as §1
# [21] = target: Fuc(a1-2)Gal(b1-4)GlcNAc(b1-2)Man(a1-3)[Fuc(a1-2)Gal(b1-4)GlcNAc(b1-2)Man(a1-6)]Man(b1-4)GlcNAc(b1-4)[Fuc(a1-6)]GlcNAc
# Outline: as §1
# [22] = target: Fuc(a1-2)Gal(b1-4)GlcNAc(b1-2)[Fuc(a1-2)Gal(b1-4)GlcNAc(b1-4)]Man(a1-3)[Fuc(a1-2)Gal(b1-4)GlcNAc(b1-2)Man(a1-6)]Man(b1-4)GlcNAc(b1-4)GlcNAc
# Outline: as §1
# [23] = target: Fuc(a1-2)Gal(b1-4)GlcNAc(b1-3)Gal(b1-4)GlcNAc
# Outline: as §1
# [24] = target: Fuc(a1-2)Gal(b1-4)GlcNAc(b1-3)Gal(b1-4)GlcNAc(b1-2)Man(a1-3)[Fuc(a1-2)Gal(b1-4)GlcNAc(b1-3)Gal(b1-4)GlcNAc(b1-2)Man(a1-6)]Man(b1-4)GlcNAc(b1-4)GlcNAc
# Outline: as §1
binder,measurement,setting,value
B1,glycan array binding signal (z-score),Fuc(a1-2)Gal,0.233
same,glycan array binding signal (z-score),Fuc(a1-2)Gal(b1-3)GalNAc,-0.235
same,glycan array binding signal (z-score),[1],-0.518
same,glycan array binding signal (z-score),[2],-0.544
same,glycan array binding signal (z-score),[3],-0.378
same,glycan array binding signal (z-score),[4],-0.281
same,glycan array binding signal (z-score),[5],1.11
same,glycan array binding signal (z-score),Fuc(a1-2)Gal(b1-3)GlcNAc,-0.42
same,glycan array binding signal (z-score),[6],1.47
same,glycan array binding signal (z-score),[7],-0.01
same,glycan array binding signal (z-score),[8],-0.246
same,glycan array binding signal (z-score),[9],-0.544
same,glycan array binding signal (z-score),[10],0.134
same,glycan array binding signal (z-score),[11],-0.399
same,glycan array binding signal (z-score),[12],0.185
same,glycan array binding signal (z-score),[13],0.538
same,glycan array binding signal (z-score),[14],-0.113
same,glycan array binding signal (z-score),[15],-0.17
same,glycan array binding signal (z-score),[16],-0.003
same,glycan array binding signal (z-score),[17],-0.77
same,glycan array binding signal (z-score),[18],-1.07
same,glycan array binding signal (z-score),Fuc(a1-2)Gal(b1-4)Glc,0.538
same,glycan array binding signal (z-score),Fuc(a1-2)Gal(b1-4)Glc6S,0.236
same,glycan array binding signal (z-score),Fuc(a1-2)Gal(b1-4)GlcNAc,-0.649
same,glycan array binding signal (z-score),[19],-0.116
same,glycan array binding signal (z-score),[20],1.42
same,glycan array binding signal (z-score),[21],0.488
same,glycan array binding signal (z-score),[22],-0.211
same,glycan array binding signal (z-score),[23],-0.229
same,glycan array binding signal (z-score),[24],0.227

# Looked up one by one from above (2):
binder,measurement,setting,value
B1,glycan array binding signal (z-score),Fuc(a1-2)Gal(b1-3)GlcNAc,-0.42
same,glycan array binding signal (z-score),[24],0.227
